{"sequences": {"note": "Sequences of proteins named here, by UniProt entry; tags and fusion partners are left off. A change or cut given only in a name is not applied to a line headed by its entry.", "UniProt P83876": "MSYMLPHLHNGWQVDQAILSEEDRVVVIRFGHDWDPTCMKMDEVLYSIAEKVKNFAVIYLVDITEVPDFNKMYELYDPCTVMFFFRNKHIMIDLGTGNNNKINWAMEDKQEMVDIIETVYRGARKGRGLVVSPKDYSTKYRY", "UniProt Q96BW1": "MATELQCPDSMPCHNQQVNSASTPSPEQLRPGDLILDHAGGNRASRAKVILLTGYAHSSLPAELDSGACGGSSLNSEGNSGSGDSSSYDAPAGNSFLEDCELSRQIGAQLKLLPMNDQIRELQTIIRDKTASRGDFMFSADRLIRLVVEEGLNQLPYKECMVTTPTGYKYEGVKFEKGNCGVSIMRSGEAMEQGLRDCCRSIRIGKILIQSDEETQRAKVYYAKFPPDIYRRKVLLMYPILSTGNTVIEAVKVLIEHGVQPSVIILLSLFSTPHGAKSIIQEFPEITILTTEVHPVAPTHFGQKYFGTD", "UniProt Q96S82": "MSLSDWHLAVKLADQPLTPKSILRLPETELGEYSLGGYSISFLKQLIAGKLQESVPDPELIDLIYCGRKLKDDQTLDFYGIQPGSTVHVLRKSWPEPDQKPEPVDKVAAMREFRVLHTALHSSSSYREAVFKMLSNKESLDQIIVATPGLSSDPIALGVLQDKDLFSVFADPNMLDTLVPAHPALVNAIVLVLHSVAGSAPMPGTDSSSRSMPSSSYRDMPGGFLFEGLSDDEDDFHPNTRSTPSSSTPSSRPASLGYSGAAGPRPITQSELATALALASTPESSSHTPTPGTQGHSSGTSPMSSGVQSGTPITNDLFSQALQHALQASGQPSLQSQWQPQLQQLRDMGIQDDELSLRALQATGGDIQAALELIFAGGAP", "UniProt Q9Y5K5, whole entry": "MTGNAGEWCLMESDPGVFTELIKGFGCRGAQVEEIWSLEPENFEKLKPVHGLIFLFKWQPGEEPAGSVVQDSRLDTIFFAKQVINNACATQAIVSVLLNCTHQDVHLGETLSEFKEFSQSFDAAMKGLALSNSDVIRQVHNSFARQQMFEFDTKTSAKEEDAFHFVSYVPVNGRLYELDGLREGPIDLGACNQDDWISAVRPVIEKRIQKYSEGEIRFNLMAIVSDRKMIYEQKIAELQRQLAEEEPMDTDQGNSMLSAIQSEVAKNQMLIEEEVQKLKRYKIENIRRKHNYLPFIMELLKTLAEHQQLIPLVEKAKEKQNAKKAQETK", "UniProt Q96FX7": "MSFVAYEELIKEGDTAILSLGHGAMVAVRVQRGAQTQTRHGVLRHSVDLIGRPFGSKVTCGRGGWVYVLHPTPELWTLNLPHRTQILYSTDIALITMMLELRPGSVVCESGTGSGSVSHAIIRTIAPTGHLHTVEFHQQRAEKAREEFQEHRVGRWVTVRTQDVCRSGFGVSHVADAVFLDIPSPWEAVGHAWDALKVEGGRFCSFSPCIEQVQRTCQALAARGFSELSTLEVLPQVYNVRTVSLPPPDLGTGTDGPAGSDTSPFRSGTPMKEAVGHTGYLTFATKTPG", "UniProt Q9NUQ7": "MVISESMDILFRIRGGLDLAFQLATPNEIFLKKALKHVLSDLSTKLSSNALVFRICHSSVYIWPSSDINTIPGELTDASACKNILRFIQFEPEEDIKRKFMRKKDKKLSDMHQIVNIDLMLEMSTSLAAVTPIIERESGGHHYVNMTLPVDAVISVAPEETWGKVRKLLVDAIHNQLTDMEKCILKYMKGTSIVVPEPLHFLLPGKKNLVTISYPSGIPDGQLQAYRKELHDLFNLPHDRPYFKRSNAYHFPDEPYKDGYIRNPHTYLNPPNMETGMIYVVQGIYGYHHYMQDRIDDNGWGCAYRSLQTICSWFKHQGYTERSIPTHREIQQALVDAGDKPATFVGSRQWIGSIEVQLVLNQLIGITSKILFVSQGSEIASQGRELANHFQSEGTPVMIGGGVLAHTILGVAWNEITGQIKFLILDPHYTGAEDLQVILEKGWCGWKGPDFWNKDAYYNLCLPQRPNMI", "UniProt Q8WTW4": "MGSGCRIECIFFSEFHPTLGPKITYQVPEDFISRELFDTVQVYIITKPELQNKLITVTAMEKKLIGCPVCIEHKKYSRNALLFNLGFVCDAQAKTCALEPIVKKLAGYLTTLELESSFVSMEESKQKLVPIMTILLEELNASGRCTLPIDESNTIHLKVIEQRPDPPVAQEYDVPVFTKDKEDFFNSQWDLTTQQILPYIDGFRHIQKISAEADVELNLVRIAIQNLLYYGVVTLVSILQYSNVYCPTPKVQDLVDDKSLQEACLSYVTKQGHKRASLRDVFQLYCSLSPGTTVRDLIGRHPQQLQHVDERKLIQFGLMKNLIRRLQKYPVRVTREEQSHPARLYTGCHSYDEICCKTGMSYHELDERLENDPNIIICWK", "UniProt Q8NBP0": "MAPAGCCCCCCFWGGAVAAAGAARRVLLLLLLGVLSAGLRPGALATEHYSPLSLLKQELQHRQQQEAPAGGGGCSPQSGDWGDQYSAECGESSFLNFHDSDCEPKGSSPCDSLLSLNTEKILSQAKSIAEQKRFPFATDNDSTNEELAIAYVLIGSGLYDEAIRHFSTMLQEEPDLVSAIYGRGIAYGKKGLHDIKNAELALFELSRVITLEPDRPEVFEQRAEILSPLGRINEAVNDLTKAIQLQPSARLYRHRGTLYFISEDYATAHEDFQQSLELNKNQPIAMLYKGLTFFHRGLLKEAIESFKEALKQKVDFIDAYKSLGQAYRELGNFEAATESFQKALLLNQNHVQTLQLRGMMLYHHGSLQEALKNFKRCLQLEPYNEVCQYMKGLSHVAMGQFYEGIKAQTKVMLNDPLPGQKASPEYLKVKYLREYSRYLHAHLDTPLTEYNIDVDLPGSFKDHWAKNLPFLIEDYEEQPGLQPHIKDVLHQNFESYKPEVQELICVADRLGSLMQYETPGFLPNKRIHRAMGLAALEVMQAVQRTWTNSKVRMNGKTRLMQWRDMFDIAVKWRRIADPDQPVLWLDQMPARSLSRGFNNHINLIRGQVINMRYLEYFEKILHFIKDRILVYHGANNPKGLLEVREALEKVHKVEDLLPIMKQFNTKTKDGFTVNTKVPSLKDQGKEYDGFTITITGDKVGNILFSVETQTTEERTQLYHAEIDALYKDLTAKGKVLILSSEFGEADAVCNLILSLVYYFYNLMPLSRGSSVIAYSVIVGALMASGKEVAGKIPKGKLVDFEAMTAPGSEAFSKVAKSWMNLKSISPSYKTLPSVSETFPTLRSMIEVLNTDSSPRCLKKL", "UniProt Q6ZMU5": "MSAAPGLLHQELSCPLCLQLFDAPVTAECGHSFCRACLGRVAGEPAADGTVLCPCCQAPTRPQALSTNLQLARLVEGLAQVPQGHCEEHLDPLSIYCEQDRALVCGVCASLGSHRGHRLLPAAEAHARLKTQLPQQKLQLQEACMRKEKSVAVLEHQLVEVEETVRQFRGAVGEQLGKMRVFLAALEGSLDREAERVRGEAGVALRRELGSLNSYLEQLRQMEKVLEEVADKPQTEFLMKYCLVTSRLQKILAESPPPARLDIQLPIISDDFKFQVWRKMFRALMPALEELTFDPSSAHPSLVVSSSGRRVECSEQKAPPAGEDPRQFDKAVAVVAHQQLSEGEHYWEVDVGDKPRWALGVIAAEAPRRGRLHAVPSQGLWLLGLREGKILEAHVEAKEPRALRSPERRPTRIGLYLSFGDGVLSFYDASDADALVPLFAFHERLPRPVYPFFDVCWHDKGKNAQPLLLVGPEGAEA", "UniProt P43897": "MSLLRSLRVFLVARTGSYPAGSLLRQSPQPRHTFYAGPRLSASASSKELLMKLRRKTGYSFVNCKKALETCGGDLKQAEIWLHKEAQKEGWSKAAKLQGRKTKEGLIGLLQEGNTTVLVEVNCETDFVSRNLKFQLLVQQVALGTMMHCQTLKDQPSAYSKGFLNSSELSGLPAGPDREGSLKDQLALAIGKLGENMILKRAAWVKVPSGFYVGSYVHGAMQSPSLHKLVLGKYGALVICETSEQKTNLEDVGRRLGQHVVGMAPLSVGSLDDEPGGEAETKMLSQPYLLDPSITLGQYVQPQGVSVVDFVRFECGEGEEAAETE", "UniProt Q8NBM4": "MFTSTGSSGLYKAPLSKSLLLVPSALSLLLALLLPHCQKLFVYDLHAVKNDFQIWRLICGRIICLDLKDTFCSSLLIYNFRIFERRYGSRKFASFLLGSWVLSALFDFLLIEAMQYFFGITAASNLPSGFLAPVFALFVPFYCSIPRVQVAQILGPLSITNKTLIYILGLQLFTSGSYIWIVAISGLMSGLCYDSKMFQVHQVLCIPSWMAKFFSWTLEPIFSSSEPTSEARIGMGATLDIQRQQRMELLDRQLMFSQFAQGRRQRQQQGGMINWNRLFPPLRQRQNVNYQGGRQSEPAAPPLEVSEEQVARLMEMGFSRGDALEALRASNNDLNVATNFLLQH", "UniProt Q92900": "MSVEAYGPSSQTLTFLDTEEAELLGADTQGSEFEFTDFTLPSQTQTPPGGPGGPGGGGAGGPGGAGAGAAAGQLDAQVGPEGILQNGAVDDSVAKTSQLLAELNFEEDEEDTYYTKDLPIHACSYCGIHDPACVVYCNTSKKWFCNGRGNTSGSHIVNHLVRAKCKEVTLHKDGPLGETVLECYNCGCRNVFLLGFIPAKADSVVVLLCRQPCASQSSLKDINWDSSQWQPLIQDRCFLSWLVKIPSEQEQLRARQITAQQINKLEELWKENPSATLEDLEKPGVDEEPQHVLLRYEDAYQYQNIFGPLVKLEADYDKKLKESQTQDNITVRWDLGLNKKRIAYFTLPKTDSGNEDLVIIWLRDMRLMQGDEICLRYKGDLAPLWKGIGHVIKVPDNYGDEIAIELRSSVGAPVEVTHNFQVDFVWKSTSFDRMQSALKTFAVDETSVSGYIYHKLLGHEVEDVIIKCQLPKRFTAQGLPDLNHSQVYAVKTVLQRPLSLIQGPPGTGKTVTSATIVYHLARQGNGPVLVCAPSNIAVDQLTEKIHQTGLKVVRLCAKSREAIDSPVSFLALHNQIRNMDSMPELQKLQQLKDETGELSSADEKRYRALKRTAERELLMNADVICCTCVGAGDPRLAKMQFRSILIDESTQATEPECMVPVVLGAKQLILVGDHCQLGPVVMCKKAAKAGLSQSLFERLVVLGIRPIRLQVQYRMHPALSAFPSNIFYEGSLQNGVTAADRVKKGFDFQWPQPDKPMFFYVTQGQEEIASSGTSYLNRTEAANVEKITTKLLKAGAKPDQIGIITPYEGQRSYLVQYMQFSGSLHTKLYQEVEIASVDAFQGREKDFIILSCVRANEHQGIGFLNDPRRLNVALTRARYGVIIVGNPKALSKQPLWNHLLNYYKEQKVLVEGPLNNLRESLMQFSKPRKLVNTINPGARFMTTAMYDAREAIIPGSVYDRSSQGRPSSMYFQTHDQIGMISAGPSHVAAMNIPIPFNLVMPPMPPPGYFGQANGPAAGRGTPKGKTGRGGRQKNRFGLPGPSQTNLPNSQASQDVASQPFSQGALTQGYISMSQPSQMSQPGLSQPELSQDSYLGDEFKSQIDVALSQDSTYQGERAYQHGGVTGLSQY", "UniProt Q8IYM9": "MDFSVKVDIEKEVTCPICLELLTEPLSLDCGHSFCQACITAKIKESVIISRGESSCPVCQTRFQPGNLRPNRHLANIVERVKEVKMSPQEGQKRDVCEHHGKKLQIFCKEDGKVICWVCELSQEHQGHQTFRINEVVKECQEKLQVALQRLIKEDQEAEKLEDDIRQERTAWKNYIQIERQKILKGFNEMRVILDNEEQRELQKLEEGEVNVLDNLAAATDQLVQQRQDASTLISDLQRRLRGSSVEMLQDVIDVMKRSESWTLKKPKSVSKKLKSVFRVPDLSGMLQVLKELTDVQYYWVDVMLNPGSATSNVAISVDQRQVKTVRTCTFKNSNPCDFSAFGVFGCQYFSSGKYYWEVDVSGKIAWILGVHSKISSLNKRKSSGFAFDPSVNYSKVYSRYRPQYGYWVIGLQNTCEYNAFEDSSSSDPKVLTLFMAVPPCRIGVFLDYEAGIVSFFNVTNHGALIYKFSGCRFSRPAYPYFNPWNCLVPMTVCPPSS", "UniProt P13051, whole entry": "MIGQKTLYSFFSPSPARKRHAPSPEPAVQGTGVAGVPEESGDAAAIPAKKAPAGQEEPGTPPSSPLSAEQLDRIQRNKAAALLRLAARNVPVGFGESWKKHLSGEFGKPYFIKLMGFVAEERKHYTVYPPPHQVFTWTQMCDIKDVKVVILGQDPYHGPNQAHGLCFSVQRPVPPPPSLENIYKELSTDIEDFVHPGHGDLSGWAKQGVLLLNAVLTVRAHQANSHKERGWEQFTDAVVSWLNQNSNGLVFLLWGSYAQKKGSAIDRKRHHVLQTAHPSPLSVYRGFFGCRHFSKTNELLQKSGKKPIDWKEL", "UniProt P15374": "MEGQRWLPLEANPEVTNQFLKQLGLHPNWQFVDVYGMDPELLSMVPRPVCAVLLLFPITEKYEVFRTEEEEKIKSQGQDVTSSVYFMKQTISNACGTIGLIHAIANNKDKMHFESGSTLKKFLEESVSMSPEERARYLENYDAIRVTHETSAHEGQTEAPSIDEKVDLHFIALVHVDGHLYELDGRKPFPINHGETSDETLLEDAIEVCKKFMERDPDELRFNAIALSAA"}, "source": "the supplement of paper PMC7666118", "compound": "COc1ccc(Cn2ccc3ccc(C(=O)NO)cc32)cc1", "assay": "dose-dependent thermal stabilisation call (2D-TPP, DLPTP, 10% FDR) (binary (1 = stabilised)); higher = stabilised by the compound", "details": "system: HL-60 intact cells; concentration range 0.04-10 µM", "note": "This is one part of the list.", "data": [{"target": "USP1 (UniProt O94782)", "values": [{"measurement": "dose-dependent thermal stabilisation call", "value": "inactive: 0"}]}, {"target": "TXNL4A (UniProt P83876)", "values": [{"measurement": "dose-dependent thermal stabilisation call", "value": "inactive: 0"}]}, {"target": "UNC84A (UniProt O94901)", "values": [{"measurement": "dose-dependent thermal stabilisation call", "value": "inactive: 0"}]}, {"target": "UPRT (UniProt Q96BW1)", "values": [{"measurement": "dose-dependent thermal stabilisation call", "value": "inactive: 0"}]}, {"target": "USP3 (UniProt Q9Y6I4)", "values": [{"measurement": "dose-dependent thermal stabilisation call", "value": "inactive: 0"}]}, {"target": "UBL7 (UniProt Q96S82)", "values": [{"measurement": "dose-dependent thermal stabilisation call", "value": "inactive: 0"}]}, {"target": "UCHL5 (UniProt Q9Y5K5)", "values": [{"measurement": "dose-dependent thermal stabilisation call", "value": "inactive: 0"}]}, {"target": "TRMT61A (UniProt Q96FX7)", "values": [{"measurement": "dose-dependent thermal stabilisation call", "value": "inactive: 0"}]}, {"target": "UFSP2 (UniProt Q9NUQ7)", "values": [{"measurement": "dose-dependent thermal stabilisation call", "value": "inactive: 0"}]}, {"target": "UROD (UniProt P06132)", "values": [{"measurement": "dose-dependent thermal stabilisation call", "value": "inactive: 0"}]}, {"target": "TRIO (UniProt O75962)", "values": [{"measurement": "dose-dependent thermal stabilisation call", "value": "inactive: 0"}]}, {"target": "TSEN54 (UniProt Q7Z6J9)", "values": [{"measurement": "dose-dependent thermal stabilisation call", "value": "inactive: 0"}]}, {"target": "TRAF6 (UniProt Q9Y4K3)", "values": [{"measurement": "dose-dependent thermal stabilisation call", "value": "inactive: 0"}]}, {"target": "TUSC4 (UniProt Q8WTW4)", "values": [{"measurement": "dose-dependent thermal stabilisation call", "value": "inactive: 0"}]}, {"target": "TUBGCP2 (UniProt Q9BSJ2)", "values": [{"measurement": "dose-dependent thermal stabilisation call", "value": "inactive: 0"}]}, {"target": "TTC13 (UniProt Q8NBP0)", "values": [{"measurement": "dose-dependent thermal stabilisation call", "value": "inactive: 0"}]}, {"target": "TRIM72 (UniProt Q6ZMU5)", "values": [{"measurement": "dose-dependent thermal stabilisation call", "value": "inactive: 0"}]}, {"target": "TRMT1 (UniProt Q9NXH9)", "values": [{"measurement": "dose-dependent thermal stabilisation call", "value": "active: 1"}]}, {"target": "TSFM (UniProt P43897)", "values": [{"measurement": "dose-dependent thermal stabilisation call", "value": "inactive: 0"}]}, {"target": "TUBGCP6 (UniProt Q96RT7)", "values": [{"measurement": "dose-dependent thermal stabilisation call", "value": "inactive: 0"}]}, {"target": "UBAC2 (UniProt Q8NBM4)", "values": [{"measurement": "dose-dependent thermal stabilisation call", "value": "inactive: 0"}]}, {"target": "UPF1 (UniProt Q92900)", "values": [{"measurement": "dose-dependent thermal stabilisation call", "value": "inactive: 0"}]}, {"target": "UBXN4 (UniProt Q92575)", "values": [{"measurement": "dose-dependent thermal stabilisation call", "value": "inactive: 0"}]}, {"target": "USF2 (UniProt Q15853)", "values": [{"measurement": "dose-dependent thermal stabilisation call", "value": "inactive: 0"}]}, {"target": "TRIM22 (UniProt Q8IYM9)", "values": [{"measurement": "dose-dependent thermal stabilisation call", "value": "inactive: 0"}]}, {"target": "UNG (UniProt P13051)", "values": [{"measurement": "dose-dependent thermal stabilisation call", "value": "inactive: 0"}]}, {"target": "UCHL3 (UniProt P15374)", "values": [{"measurement": "dose-dependent thermal stabilisation call", "value": "inactive: 0"}]}]}
